Source: patent US6593074B2, “Silver halide photographic emulsion, producing method of the same, and silver halide photographic material containing the same” (Fuji Photo Film Co., Ltd., priority 2000, dated 2003)

assay: Evaluation of dyeing (dye transferred via automatic processor roller to photographic paper); design: key: grade 5 means best, i.e., the generation of dyeing was least; grade 1 means worst, i.e., the generation of dyeing was most; settings: dye added as methanol solution; five grades
Protocol: Dyeing is a failure that when a photographic paper is processed after processing a photographic film, the dye transferred to the transporting roller of the automatic processor from the film adheres to the photographic paper.
The above-obtained sample of a large size (50.8 cm×61 cm) was processed using automatic processor FG9601S (produced by Fuji Photo Film Co., Ltd.) filled with developing solution ND-1 (mother solution/water: 2/1, 35° C., 30 seconds), fixing solution NF-1 (mother solution/water: 1/2, 34° C.), and washing water (25° C.). Three large size sheets were processed with the interval of 1 minute with replenishing 50 ml of the working solution per one sheet, and 10 minutes after that, three large size sheets of scanner paper PR-H100WP (manufactured by Fuji Photo Film Co., Ltd.) were processed with the interval of 1 minute. This procedure was repeated three times and dyeing of the entire surface of the emulsion layer side and the back side and the end part of the processed sheet was compared and confirmed.
Dyeing of the obtained samples was evaluated by five grade (grade 5 means best, i.e., the generation of dyeing was least, and grade 1 means worst, i.e., the generation of dyeing was most).

Row | SMILES | Dyeing
1 | CCN(CC)CC.CCN(CC)CC.O=C(O)CN1C(=O)C(=C2Oc3ccc(Cl)cc3N2CCCCS(=O)(=O)O)SC1=S [Dye (1)] | 5
2 | CCN(CC)CC.CCN(CC)CC.Cc1cc2c(cc1C)N(CCCS(=O)(=O)O)C(=CC=C1SC(=S)N(CC(=O)O)C1=O)S2 [Dye (6)] | 5
3 | CC(=CC=C1Oc2ccccc2N1CCS(=O)(=O)O)C=C1SC(=S)N(CC(=O)O)C1=O.CCN(CC)CC.CCN(CC)CC [Dye (12)] | 5
4 | O=C([O-])CN1C(=O)C(=C2Oc3ccc(Cl)cc3N2CCCCS(=O)(=O)[O-])SC1=S.[K+].[K+] [SS-1, reference compound] | 1
5 | CC(=CC=C1Sc2cc(C)ccc2N1CCCCS(=O)(=O)[O-])C=C1SC(=S)N(CC(=O)[O-])C1=O.[Na+].[Na+] [SS-4, reference compound] | 1
6 | CC(=CC=C1Oc2ccccc2N1CCS(=O)(=O)[O-])C=C1SC(=S)N(CC(=O)[O-])C1=O.[Na+].[Na+] [SS-5, reference compound] | 1
7 | COc1cc2sc(C=c3sc(=CC=C4SC=C(C)N4CCCCS(=O)(=O)[O-])c(=O)n3CC(=O)[O-])[n+](CCCCS(=O)(=O)[O-])c2cc1OC.[Na+].[Na+] [SS-7, reference compound] | 1

same assay, conditions: dye added as water solution; five grades

Row | SMILES | Dyeing
8 | O=C([O-])CN1C(=O)C(=C2Oc3ccc(Cl)cc3N2CCCCS(=O)(=O)[O-])SC1=S.[K+].[K+] [SS-1, reference compound] | 1
